Results as given in patent publication US8791099B2, “Transition metal complexes of corroles for preventing cardiovascular diseases or disorders” (Technion Research and Development Foundation Ltd., priority 2007, dated 2014).
Some results were stated once for a whole list of compounds, not compound by compound. At least one compound was matched to its structure with a doubt left.

Test system: HDL
Assay: Corrole distribution in plasma/serum (KBr density gradient ultracentrifugation)
Format: in vitro ADME
Conditions: 4 mL human serum, 20 and 40 μM, ultracentrifugation 48 h

Row | SMILES | Share of corrole accumulated in the fraction containing HDL
1 | O=S(=O)(O)c1cc2[n]3c1C(c1c(F)c(F)c(F)c(F)c1F)=C1C=CC4=[N+]1[Fe-]31[n]3c(cc(S(=O)(=O)O)c3-2)C(c2c(F)c(F)c(F)c(F)c2F)=c2ccc([n]21)=C4c1c(F)c(F)c(F)c(F)c1F (centres unmarked) [1-Fe, 5,10,15-tris(pentafluorophenyl)-2,17-bis(sulfonic acid)-corrolato iron(III)] | 65-70%
2 | O=S(=O)(O)c1cc2[n]3c1C(c1c(F)c(F)c(F)c(F)c1F)=C1C=CC4=[N+]1[Mn-]31[n]3c(cc(S(=O)(=O)O)c3-2)C(c2c(F)c(F)c(F)c(F)c2F)=c2ccc([n]21)=C4c1c(F)c(F)c(F)c(F)c1F (centres unmarked) [1-Mn, 5,10,15-tris(pentafluorophenyl)-2,17-bis(sulfonic acid)-corrolato manganese(III)] | 65-70%
